According to the supplement of paper PMC7661543:
Differences between knockout arms are mostly noise.

Tested on: MDA-MB-231
Experiment: relative cell number vs DMSO control (72 h) (% of DMSO); higher = less growth inhibition (more cells)
Procedure: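 QMAP-Seq: a pool of 5 breast cancer cell lines (ZR-75-1, SKBR3, HCC-38, MDA-MB-231, BT-20), each carrying 12 doxycycline-inducible Cas9 sgRNA perturbations (11 knockouts plus non-targeting sgNT), was treated with compounds for 72 h at four 10-fold doses (10 nM-10 uM or 1 nM-1 uM range). Barcodes were amplified and sequenced, and cell number was interpolated from 293T spike-in standard curves. The result is expressed as % of the median of DMSO wells. Two biological replicates.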

Cc1ccc(Nc2nccc(N(C)c3ccc4c(C)n(C)nc4c3)n2)cc1S(N)(=O)=O [Pazopanib]
Conditions | relative cell number
sgRNA knockout: sgATF3, 10 nM | 98.4
sgRNA knockout: sgATF3, 100 nM | 101
sgRNA knockout: sgATF3, 1000 nM | 85.6
sgRNA knockout: sgATF3, 10000 nM | 54.5
sgRNA knockout: sgATF4, 10 nM | 114.4
sgRNA knockout: sgATF4, 100 nM | 86.9
sgRNA knockout: sgATF4, 1000 nM | 115
sgRNA knockout: sgATF4, 10000 nM | 51.8
sgRNA knockout: sgATF6, 10 nM | 97.7
sgRNA knockout: sgATF6, 100 nM | 108
sgRNA knockout: sgATF6, 1000 nM | 84.9
sgRNA knockout: sgATF6, 10000 nM | 55.2
sgRNA knockout: sgATG7, 10 nM | 95.3
sgRNA knockout: sgATG7, 100 nM | 91.1
sgRNA knockout: sgATG7, 1000 nM | 96.2
sgRNA knockout: sgATG7, 10000 nM | 59.8
sgRNA knockout: sgERN1, 10 nM | 105
sgRNA knockout: sgERN1, 100 nM | 73.6
sgRNA knockout: sgERN1, 1000 nM | 85.4
sgRNA knockout: sgERN1, 10000 nM | 60
sgRNA knockout: sgHSF1, 10 nM | 97.7
sgRNA knockout: sgHSF1, 100 nM | 79.1
sgRNA knockout: sgHSF1, 1000 nM | 95.7
sgRNA knockout: sgHSF1, 10000 nM | 44.9
sgRNA knockout: sgHSF2, 10 nM | 115
sgRNA knockout: sgHSF2, 100 nM | 115
sgRNA knockout: sgHSF2, 1000 nM | 94.1
sgRNA knockout: sgHSF2, 10000 nM | 68.8
sgRNA knockout: sgKEAP1, 10 nM | 97.8
sgRNA knockout: sgKEAP1, 100 nM | 95.7
sgRNA knockout: sgKEAP1, 1000 nM | 85
sgRNA knockout: sgKEAP1, 10000 nM | 58.2
sgRNA knockout: sgNFE2L2, 10 nM | 91.489
sgRNA knockout: sgNFE2L2, 100 nM | 84.78
sgRNA knockout: sgNFE2L2, 1000 nM | 81.14
sgRNA knockout: sgNFE2L2, 10000 nM | 67.6
sgRNA knockout: sgSLC35F2, 10 nM | 118
sgRNA knockout: sgSLC35F2, 100 nM | 99.1
sgRNA knockout: sgSLC35F2, 1000 nM | 104
sgRNA knockout: sgSLC35F2, 10000 nM | 58.6
sgRNA knockout: sgXBP1, 10 nM | 99.1
sgRNA knockout: sgXBP1, 100 nM | 101
sgRNA knockout: sgXBP1, 1000 nM | 99.5
sgRNA knockout: sgXBP1, 10000 nM | 69.4

Cc1ccc(C(=O)Cn2c3c(sc2=N)CCCC3)cc1 [PifithrinAlpha]
Conditions | relative cell number
sgRNA knockout: sgATF3, 10 nM | 89.6
sgRNA knockout: sgATF3, 100 nM | 88.5
sgRNA knockout: sgATF3, 1000 nM | 89.5
sgRNA knockout: sgATF3, 10000 nM | 73.4
sgRNA knockout: sgATF4, 10 nM | 78.6
sgRNA knockout: sgATF4, 100 nM | 81.6
sgRNA knockout: sgATF4, 1000 nM | 113
sgRNA knockout: sgATF4, 10000 nM | 37.8
sgRNA knockout: sgATF6, 10 nM | 110
sgRNA knockout: sgATF6, 100 nM | 76
sgRNA knockout: sgATF6, 1000 nM | 79.4
sgRNA knockout: sgATF6, 10000 nM | 69.2
sgRNA knockout: sgATG7, 10 nM | 71.1
sgRNA knockout: sgATG7, 100 nM | 88
sgRNA knockout: sgATG7, 1000 nM | 88.2
sgRNA knockout: sgATG7, 10000 nM | 60.6
sgRNA knockout: sgERN1, 10 nM | 85.5
sgRNA knockout: sgERN1, 100 nM | 69.5
sgRNA knockout: sgERN1, 1000 nM | 117
sgRNA knockout: sgERN1, 10000 nM | 67.5
sgRNA knockout: sgHSF1, 10 nM | 100
sgRNA knockout: sgHSF1, 100 nM | 91.3
sgRNA knockout: sgHSF1, 1000 nM | 81.3
sgRNA knockout: sgHSF1, 10000 nM | 80.4
sgRNA knockout: sgHSF2, 10 nM | 95.1
sgRNA knockout: sgHSF2, 100 nM | 78
sgRNA knockout: sgHSF2, 1000 nM | 88.3
sgRNA knockout: sgHSF2, 10000 nM | 84.2
sgRNA knockout: sgKEAP1, 10 nM | 96.2
sgRNA knockout: sgKEAP1, 100 nM | 79.7
sgRNA knockout: sgKEAP1, 1000 nM | 98.2
sgRNA knockout: sgKEAP1, 10000 nM | 61
sgRNA knockout: sgNFE2L2, 10 nM | 103
sgRNA knockout: sgNFE2L2, 100 nM | 80
sgRNA knockout: sgNFE2L2, 1000 nM | 97.72
sgRNA knockout: sgNFE2L2, 10000 nM | 58.4
sgRNA knockout: sgSLC35F2, 10 nM | 79.1
sgRNA knockout: sgSLC35F2, 100 nM | 68.4
sgRNA knockout: sgSLC35F2, 1000 nM | 87.2
sgRNA knockout: sgSLC35F2, 10000 nM | 59.9
sgRNA knockout: sgXBP1, 10 nM | 89.8
sgRNA knockout: sgXBP1, 100 nM | 95.5
sgRNA knockout: sgXBP1, 1000 nM | 89.2
sgRNA knockout: sgXBP1, 10000 nM | 65

COc1cc(OC)c(/C=C/S(=O)(=O)Cc2ccc(OC)c(NCC(=O)O)c2)c(OC)c1 [Rigosertib]
Conditions | relative cell number
sgRNA knockout: sgATF3, 10 nM | 107
sgRNA knockout: sgATF3, 100 nM | 72.1
sgRNA knockout: sgATF3, 1000 nM | 25.7
sgRNA knockout: sgATF3, 10000 nM | 17.5
sgRNA knockout: sgATF4, 10 nM | 104.3
sgRNA knockout: sgATF4, 100 nM | 67.9
sgRNA knockout: sgATF4, 1000 nM | 41.8
sgRNA knockout: sgATF4, 10000 nM | 22.6
sgRNA knockout: sgATF6, 10 nM | 83.2
sgRNA knockout: sgATF6, 100 nM | 60.9
sgRNA knockout: sgATF6, 1000 nM | 37.7
sgRNA knockout: sgATF6, 10000 nM | 25
sgRNA knockout: sgATG7, 10 nM | 92.49
sgRNA knockout: sgATG7, 100 nM | 51.5
sgRNA knockout: sgATG7, 1000 nM | 25.2
sgRNA knockout: sgATG7, 10000 nM | 23.7
sgRNA knockout: sgERN1, 10 nM | 93.3
sgRNA knockout: sgERN1, 100 nM | 69.9
sgRNA knockout: sgERN1, 1000 nM | 29.6
sgRNA knockout: sgERN1, 10000 nM | 17.7
sgRNA knockout: sgHSF1, 10 nM | 77.6
sgRNA knockout: sgHSF1, 100 nM | 58.8
sgRNA knockout: sgHSF1, 1000 nM | 32
sgRNA knockout: sgHSF1, 10000 nM | 26.3
sgRNA knockout: sgHSF2, 10 nM | 83.6
sgRNA knockout: sgHSF2, 100 nM | 73.1
sgRNA knockout: sgHSF2, 1000 nM | 38.5
sgRNA knockout: sgHSF2, 10000 nM | 21.6
sgRNA knockout: sgKEAP1, 10 nM | 112
sgRNA knockout: sgKEAP1, 100 nM | 54.8
sgRNA knockout: sgKEAP1, 1000 nM | 24.8
sgRNA knockout: sgKEAP1, 10000 nM | 17
sgRNA knockout: sgNFE2L2, 10 nM | 98.3
sgRNA knockout: sgNFE2L2, 100 nM | 69.2
sgRNA knockout: sgNFE2L2, 1000 nM | 28.3
sgRNA knockout: sgNFE2L2, 10000 nM | 24
sgRNA knockout: sgSLC35F2, 10 nM | 128
sgRNA knockout: sgSLC35F2, 100 nM | 60.9
sgRNA knockout: sgSLC35F2, 1000 nM | 22.1
sgRNA knockout: sgSLC35F2, 10000 nM | 22.1
sgRNA knockout: sgXBP1, 10 nM | 110
sgRNA knockout: sgXBP1, 100 nM | 74.9
sgRNA knockout: sgXBP1, 1000 nM | 22.7
sgRNA knockout: sgXBP1, 10000 nM | 21.6
